This is one part of the list. Shown are side measurements of this screen, not its main read-out; they come without a call. The list favours compounds with an active or inconclusive main result. The note in brackets gives the kind of curve behind each potency; many fits are weak.
assay: Cell signaling CRE-BLA (Fsk stim); conditions: CHO CRE-bla reporter (cAMP response element driving beta-lactamase), forskolin EC10, beta-lactamase ratio; measured here: 460 nm blue channel
How it was run: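 Cells were plated overnight at 37 °C, exposed to compound titrations plus EC10 NKH 477 for 3 h, then given CCF4 dye for 2 h at room temperature. Blue/green (460/530 nm) ratio was converted to %Activity and AC50 values calculated.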

SMILES	AC50
CCOc1ccc2nc(NCCNC(=O)Nc3ccccc3)c(C#N)cc2c1	12.6 µM [rising, partial curve]
Cc1nc2cnc(Oc3cccc(Cl)c3)nc2n(CCc2ccccc2)c1=O	12.6 µM [rising, partial curve]
CCN(CC)c1ccc2c(c1)oc(=O)c1c(Cl)cc(=O)oc12	10 µM [rising, partial curve]
CN(CCOc1ccc(C[C@H](Nc2ccccc2C(=O)c2ccccc2)C(=O)O)cc1)c1ccccn1	12.6 µM [falling, single point]
O=C(CSc1nnc(-c2ccc(Br)o2)n1Cc1ccccc1)c1ccccc1F	15.8 µM [rising, single point]
O=C(CSc1ccc2nnc(-c3ccccc3)n2n1)NCC1CCCO1 (stereo not drawn)	5.01 µM [rising, single point]
O=C(O)C1CCCCC1C(=O)OCCCCOC(=O)C1CCCCC1C(=O)O (stereo not drawn)	0.631 µM [falling, full curve, poor fit]
O=C(CSc1nc2c(sc3ccccc32)c(=O)n1Cc1ccco1)NCC1CCCO1 (stereo not drawn)	10 µM [rising, partial curve]
c1ccc(CCc2nn3c(Cn4cnc5ccccc54)nnc3s2)cc1	10 µM [rising, single point]
Cc1c(C#N)c(SCC(N)=O)nc2c1CCCC2	0.126 µM [falling, single point]
Cc1nc2sc3c(c2c(=O)[nH]1)CCCC3	3.98 µM [rising, single point]
Cn1c2c(c(=O)n(C)c1=O)CN(Cc1ccc3c(c1)OCO3)CN2	25.1 µM [rising, single point]
CCc1nc(N[C@@H](Cc2c[nH]c3ccccc23)C(=O)O)c2oc3ccccc3c2n1	12.6 µM [rising, single point]
COc1ccc(-c2csc(/C(C#N)=C(\O)CSc3nccn3C)n2)cc1OC	10 µM [rising, single point]
N#C[C@@H]1[C@@H]2C(=O)N(c3ccc4c(c3)OCCO4)C(=O)[C@@H]2C2c3ccccc3C=CN21 (stereo partly drawn)	25.1 µM [falling, single point]
CCOC(=O)c1c(C(=O)OCC)c(C)n(N2C(=O)CSC2=S)c1C	0.00316 µM [falling, full curve, poor fit]
N#Cc1nc(Cc2cccc3ccccc23)oc1NCCN1CCCCC1	25.1 µM [falling, single point]
COc1cc(NS(=O)(=O)c2ccc(NC(C)=O)cc2)cc(OC)c1	10 µM [falling, single point]
Cn1c(=O)n(C)c2cc(C(=O)Nc3ccc4c(c3)OCO4)ccc21	25.1 µM [rising, single point]
CCC(=O)Nc1c(C)ccc2nsnc12	0.00398 µM [falling, full curve, poor fit]
CCOc1ccc(S(=O)(=O)N(C)c2ccc(OCC(=O)OCc3c(C)noc3C)cc2)cc1	25.1 µM [rising, single point]
CNCCCN1c2ccccc2CCc2ccccc21	15.8 µM [falling, partial curve]
Cc1ccccc1Cn1c(=N)n(CC(O)c2ccco2)c2ccccc21 (stereo not drawn)	25.1 µM [rising, single point]

Three successive records out of the list so far:
SMILES	AC50
Cn1c2c(c(=O)n(C)c1=O)CN(Cc1ccc3c(c1)OCO3)CN2	25.1 µM [rising, single point]
CCc1nc(N[C@@H](Cc2c[nH]c3ccccc23)C(=O)O)c2oc3ccccc3c2n1	12.6 µM [rising, single point]
COc1ccc(-c2csc(/C(C#N)=C(\O)CSc3nccn3C)n2)cc1OC	10 µM [rising, single point]

The list continues:

SMILES	AC50
Cc1sc2ncnc(SCC(=O)c3cccs3)c2c1C	2 µM [rising, single point]
COc1ccc(-c2nnc(SCc3nnc(-c4ccccc4)o3)n2-c2ccccc2)cc1	1 µM [rising, partial curve]
CCN(CCNC(=O)C1CCCN(S(=O)(=O)CC)C1)c1ccccc1 (stereo not drawn)	0.00398 µM [falling, full curve]
c1coc(CNc2nc3sc4c(c3c3ncnn23)CCCC4)c1	12.6 µM [rising, partial curve]
Cc1nc(SCC(C)C)[nH]c(=O)c1Cc1ccccc1	15.8 µM [rising, partial curve]
Cc1ccc(-c2csc3ncn(-n4c(C)ccc4C)c(=O)c23)o1	3.98 µM [rising, full curve, poor fit]
Cc1nc2cnc(Nc3ccccc3)nc2n(C)c1=O	12.6 µM [rising, partial curve]
N#Cc1cccc(-c2nc(NCc3cccs3)c3ccccc3n2)c1	3.98 µM [rising, full curve]
O=C(Nc1ccc(O)cc1C(=O)O)c1cccc(Br)c1	0.00398 µM [falling, full curve, poor fit]
COc1ccc(CCNC(=O)CCS(=O)(=O)c2ccc3c(c2)CCN3C(C)=O)cc1OC	0.00316 µM [falling, full curve, poor fit]
CCOc1ccccc1OCCCC(=O)NC1=NCCS1	5.01 µM [falling, partial curve]
COc1ccc2cc(C(c3nnnn3C(C)(C)C)N3CCc4ccccc4C3)c(=O)[nH]c2c1 (stereo not drawn)	15.8 µM [rising, single point]
COc1ccccc1-n1c(SCC(=O)Nc2ccccc2F)nc2[nH]ncc2c1=O	1.58 µM [rising, partial curve]
CC(C)(C)c1ccc(-c2nnc3sc(-c4ccncc4)nn23)cc1	3.98 µM [falling, single point]
Cc1ccc(NC(=O)CSCC(N)=O)cc1C	25.1 µM [rising, single point]
Cc1nnc2sc(-c3cc4ccccc4o3)nn12	2.51 µM [rising, single point]
Cc1ccc2cc(C#N)c(N3CCCN(S(=O)(=O)c4ccccc4)CC3)nc2c1	6.31 µM [rising, partial curve]
COc1ccc(C2(C(=O)N3CCOCC3)CCOCC2)cc1OC	15.8 µM [rising, partial curve]
Cn1c(=O)[nH]c(=O)c2c1nc(Br)n2Cc1ccccc1F	12.6 µM [falling, partial curve, poor fit]
COCc1cc(C)nc(SCC(=O)Nc2ccc3c(c2)OCO3)c1C#N	12.6 µM [rising, single point]
Nn1c(SCC(=O)NC2CCCc3ccccc32)nnc1-c1cccs1 (stereo not drawn)	12.6 µM [rising, single point]
CN(C)/C=C1\C=C(c2ccccc2)OC1=O	0.00398 µM [falling, full curve, poor fit]
CCOC(=O)C1=C(c2ccccc2)NC(SC)=C(C#N)C1c1ccco1 (stereo not drawn)	10 µM [rising, single point]

Part of the list above in order of heavy-atom count, largest number first.
SMILES	AC50
N#Cc1cccc(-c2nc(NCc3cccs3)c3ccccc3n2)c1	3.98 µM [rising, full curve]
Cc1ccc(-c2csc3ncn(-n4c(C)ccc4C)c(=O)c23)o1	3.98 µM [rising, full curve, poor fit]
Cc1nnc2sc(-c3cc4ccccc4o3)nn12	2.51 µM [rising, single point]

(listing goes on)

SMILES	AC50
CN(C(=O)c1ccc(Cl)cc1)C1=CCCCC1CCC#N (stereo not drawn)	31.6 µM [falling, single point]
CC(C)(C)NC(=O)COC(=O)c1ccc(O)cc1	0.1 µM [falling, single point]
CCC(C)NC(=O)Cn1cnc2sc(C)cc2c1=O (stereo not drawn)	0.398 µM [falling, partial curve]
Cc1cc(C)nc(N2CCCC(C(=O)NCc3cccs3)C2)n1 (stereo not drawn)	25.1 µM [rising, single point]
COC(=O)c1cc(COc2ccc3oc(C)c(C(=O)OC)c3c2)c(C)o1	3.16 µM [rising, full curve, poor fit]
Cc1cccc(C(=O)NCN2CCN(c3ccccc3C#N)CC2)c1	12.6 µM [falling, partial curve, poor fit]
CCN(Cc1cc2cccc(C)c2[nH]c1=O)C(=O)c1ccccc1OC	12.6 µM [rising, single point]
COc1cccc(Cn2c(=O)cnc3cnc(N(C)C)nc32)c1	10 µM [rising, partial curve]
Cc1nc2cnc(N3CCOCC3)nc2n(C[C@H]2CCCO2)c1=O	25.1 µM [rising, single point]
CCC(NC(=O)OC(C)(C)C)C(=O)Oc1ccc2c3c(c(=O)oc2c1)CCC3 (stereo not drawn)	15.8 µM [rising, single point]
CN(C)CCNC(=O)c1cc2c(=O)n(C)c3ccccc3c2n1C	6.31 µM [rising, partial curve]
CCC(C)n1c(C)nc2c(c1=O)c1nc3ccccc3nc1n2-c1ccc2c(c1)OCCO2 (stereo not drawn)	25.1 µM [rising, single point]
O=C(c1cnccn1)N(c1ccccc1)C1(C(=O)NC2CCCCC2)CCCCC1	15.8 µM [rising, partial curve]
O=C(Nc1ccc(Cl)cc1)NC1CCS(=O)(=O)C1 (stereo not drawn)	0.501 µM [rising, partial curve]
Cc1ccc(C(CC(=O)O)Nc2nc(N3CCCCC3)nc(N3CCCCC3)n2)cc1 (stereo not drawn)	6.31 µM [rising, partial curve]
COc1ccc(NC(=O)C2C(=O)NC3(C)CC2c2ccccc2O3)cc1 (stereo not drawn)	0.316 µM [falling, partial curve, poor fit]
O=C(NC1CCCC1)c1sc(=S)n2c1[nH]c(=O)c1ccccc12	0.00794 µM [falling, full curve, poor fit]
Cc1cc(C)n2cc(CSc3nnc(-c4ccccc4)o3)nc2n1	12.6 µM [rising, partial curve]
OCCNc1ncnc2ccc(Br)cc12	25.1 µM [falling, partial curve, poor fit]
COc1ccccc1CNc1ncnc2ccc(-c3ccc(C(=O)N(C)C)cc3)cc12	7.94 µM [rising, partial curve]
CC(=O)C1=C(O)C(=O)N(CCc2c[nH]c3ccccc23)C1c1ccco1 (stereo not drawn)	12.6 µM [falling, partial curve, poor fit]
CC(C)(O)C1=NOC(c2ccccc2)C1 (stereo not drawn)	1 µM [falling, partial curve]
